In paper PMC6265295:
No constants are given. Whether binding was seen depends on the method and setting. In cells and extracts the contact can be indirect. Binding calls can cover weak binding; strength is not graded here.

The chains behind the UniProt entries cited, without tags or fusion partners. Where a name states a change or a piece, a line headed by the entry shows the natural chain unless it says otherwise.
UniProt Q28645: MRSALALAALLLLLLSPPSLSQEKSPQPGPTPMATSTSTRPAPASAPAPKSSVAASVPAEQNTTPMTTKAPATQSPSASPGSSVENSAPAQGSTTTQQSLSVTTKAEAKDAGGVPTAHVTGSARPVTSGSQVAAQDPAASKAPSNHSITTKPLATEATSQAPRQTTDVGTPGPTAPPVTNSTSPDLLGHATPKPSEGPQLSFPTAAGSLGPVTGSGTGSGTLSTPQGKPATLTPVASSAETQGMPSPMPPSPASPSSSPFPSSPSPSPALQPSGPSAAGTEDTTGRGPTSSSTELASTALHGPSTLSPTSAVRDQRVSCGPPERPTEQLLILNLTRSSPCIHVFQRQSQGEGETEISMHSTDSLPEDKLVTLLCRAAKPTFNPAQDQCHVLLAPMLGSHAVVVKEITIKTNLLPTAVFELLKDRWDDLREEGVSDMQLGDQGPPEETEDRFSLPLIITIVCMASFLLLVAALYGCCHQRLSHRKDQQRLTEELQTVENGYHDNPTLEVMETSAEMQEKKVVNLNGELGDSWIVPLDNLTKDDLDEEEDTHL
UniProt Q15286: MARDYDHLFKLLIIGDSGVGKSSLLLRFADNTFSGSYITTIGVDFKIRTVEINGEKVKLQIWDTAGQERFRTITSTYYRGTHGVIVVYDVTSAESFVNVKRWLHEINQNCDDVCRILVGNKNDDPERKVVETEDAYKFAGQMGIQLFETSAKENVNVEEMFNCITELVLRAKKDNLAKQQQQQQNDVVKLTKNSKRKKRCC

Target: GFP-PODXL^V486A/Y500A (UniProt Q28645)
Test: co-IP; GFP-tagged proteins were immunoprecipitated from lysates of transfected H1299 cells (p53-/- or p53R273H) with an anti-GFP antibody conjugated to magnetic beads. Partners were detected by western blotting.

In the case of “Rab35, endogenous (from UniProt Q15286 1-201)”, the binding is reported as “binds”.
